No constants are given. Whether binding was seen depends on the method and setting. In cells and extracts the contact can be indirect. These calls come from enrichment with a bait or labelling near it, and not all partners need be listed.
B1: Ufd1-like (protein, UniProt Q9VTF9 1-316)
chain: MFHFSGFNMMFPEGRNFHANYKCFSVSMLPGNERTDVEKGGKIIMPPSALDTLTRLNVEYPMLFKLTNVKKSRSSHAGVLEFVADEGKCYLPHWMMENLLLGEGDILNIESVSLPVATFSKFQPHSTDFLDITNPKAVLENALRNFACLTRGDVIAIKYNKKVYELCVLETKPGNAVSIIECDMNVEFEAPVGYKDHSETQASGSGQQGAAGTVGGEIAGATNAILEEVVETFKGSGVRLDGKKKKESQLETPVVKKVLARGVPDYDFQFGLIRFDRNIRPISDRSQEDDAVAGNADASDAESFHGTGFSMKKTRK
B2: CCT4 (protein, UniProt Q9VK69 1-533)
chain: MAPKAAAVNIKPTAKAFKDKSKPTDVRLSNIQAAKAVSDAIRTSLGPRGMDKMIQAGNGEVSITNDGATILKQMNVLHPAAKMLVELSRAQDVAAGDGTTSVVVIAGALLEACEKLLQKGLHPTAISDSFQRCSNKAVEILKQMSTPIELDDRETLIKSASTSLNSKVVSQQSSLLAPIAVDAVLKVTDPGKETSVDLKNIKVISSLGGTVEDTELVDGLVFTCRSAGSNAPKRIEKAKIGLIQFCISAPKTDMDHNVIVSDYAAMDRVLKEERSYILNIVKQIKKSGCNVLLVQKSILRDAVSDLAQHFLDKIKCMVVKDVEREDIEFVCKTLHCRPIASLDHFTAENLSSADLVEEVASGTNKFVKITGIQNMGRTVSIICRGSNKLVLEEAARSLHDALCVVRCLVKLRAQIVGGGAPEIEMALQLAALAQTVEGVDAYCFRAFADALEVIPSTLAENAGLNPIATVTELRNRHAQGEKNAGINVRKGAITDIFAENVVQPLLVSISSITLATETIRSILKIDDIVNTFS

Biological target: Caspar (Drosophila (endogenous in fly lysates))
Experiment: affinity purification with mass spectrometry

Binder | binding
B1 | binds
B2 | binds

— doi:10.1101/2021.04.07.438776
